# Measurements taken from paper PMC13529201.
# These are yes or no findings as the source states them, for the method shown. In cells and extracts the contact can be indirect. A result given as binding can be weak or reduced; the word gives no strength. Tags and fused reporters may be left off the sequences shown.
# Biological target: T1, Flag-ABCF2 (pCAGGS-N-flag-ABCF2-P) (UniProt Q9UG63)
# T1 sequence: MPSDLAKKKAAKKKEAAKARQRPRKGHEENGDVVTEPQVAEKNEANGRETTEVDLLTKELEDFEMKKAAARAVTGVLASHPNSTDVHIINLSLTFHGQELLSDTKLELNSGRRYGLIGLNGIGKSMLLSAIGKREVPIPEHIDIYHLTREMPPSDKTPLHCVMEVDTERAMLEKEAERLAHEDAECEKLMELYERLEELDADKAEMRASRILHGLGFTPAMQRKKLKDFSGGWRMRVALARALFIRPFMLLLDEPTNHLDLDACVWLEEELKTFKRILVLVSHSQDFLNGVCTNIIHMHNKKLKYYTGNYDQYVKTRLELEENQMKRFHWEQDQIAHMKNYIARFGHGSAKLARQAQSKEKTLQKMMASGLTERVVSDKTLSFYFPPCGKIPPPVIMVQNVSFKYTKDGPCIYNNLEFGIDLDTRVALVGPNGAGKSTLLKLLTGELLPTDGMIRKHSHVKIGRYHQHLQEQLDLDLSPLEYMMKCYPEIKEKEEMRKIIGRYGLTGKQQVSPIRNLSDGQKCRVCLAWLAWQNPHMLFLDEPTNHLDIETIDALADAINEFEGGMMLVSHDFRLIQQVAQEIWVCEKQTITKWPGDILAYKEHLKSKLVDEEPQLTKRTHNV
# Assay: co-IP; lysate (2 mg) of HEK293T cells transfected with pCAGGS-N-flag-ABCF2-P incubated with His-tagged PlpE or mutant proteins (2.5 ug) 2 h at 4 C; anti-[…] antibody on protein A/G beads overnight at 4 C; eluted with 3x Flag peptide; blots with anti-[…] and anti-His; only the binder purified
substance,measurement,value
His-tagged Pasteurella lipoprotein E (PlpE) of P. multocida,binding,binds
